From PubChem BioAssay
This is a selection; strong and weak results do not stand in their true shares. Active and inactive are the calls of the source.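 The calls were made as follows: active = inhibition reaching about 45% at 4 µM in either replicate (limit read from the data); inactive = the rest.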

Experiment: lowers stimulated NF-kB luciferase signal in Jurkat – cell-based, luminescence, single concentration, T-cell NF-kB inhibitor project, confirmation (AID 435020);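 also: plate controls were PMA/ionomycin stimulated DMSO wells for no effect and unstimulated DMSO wells for full effect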
Details: PMA/ionomycin-induced, 16 h, at 4 µM, stronger effect = higher value

## CN[C@H]1C[C@H]2O[C@@](C)([C@H]1OC)n1c3ccccc3c3c4c(c5c6ccccc6n2c5c31)C(=O)NC4
  inhibition: active: 99.9%
